Where “and” joins values, the source holds several entries; their conditions need not be identical. Identical values can stand only once. Hit rate of the full screen: of about 320,000 compounds, about 22,000 (6.9%) were called active. Inconclusive means that the source gave no clear call. Such entries were picked first, then a sample of the others. Calls come from the whole dose curve; as a rule, active = well fitted inhibition curve with a large enough effect; inconclusive = small, poorly fitted or top-dose-only effect, or another doubt; inactive = no such curve, though single readings can be large or run the other way. Potencies of inconclusive entries are doubtful fits and often do not repeat.
Experiment: Primary qHTS for delayed death inhibitors of the malarial parasite plastid, 96 hour incubation
Conditions: P. falciparum luciferase reporter growth; series mostly up to 28.7 µM; activity change, negative = inhibition: at the top concentration
Summary of the method: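 96 h incubation, 37 C, 5% CO2, of luciferase-reporter P. falciparum-infected RBCs (2% hematocrit, 0.05% parasitemia final) with test compounds; endpoint luminescence.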
% is set by controls: 0 for no effect and ±100 for the full control effect; potency is the fitted concentration of half-maximal effect.

SMILES | activity change, negative = inhibition | Potency
O=C(CSc1nc2ccccc2o1)N1N=C(c2cccs2)CC1c1ccc(F)cc1 (stereo unspecified) | inactive: 15.3% | –
Cc1c(Nc2nc(-c3ccccc3)cs2)c(=O)n(-c2ccccc2)n1C | – | inconclusive: 14.7 µM [inhibitor, single point]
Cn1c(=S)[nH]c2[nH]c(=O)cnc2c1=O | inactive: 29.6% | –
COc1ccc(NC(=S)N=Nc2c(O)[nH]c3ccccc23)cc1 | – | inconclusive: 1.47 µM [inhibitor, full curve]
O=C(NC1CCCC1)C(c1ccsc1)N(Cc1ccccc1)C(=O)Cc1cccs1 (stereo unspecified) | – | inconclusive: 10.4 µM [inhibitor, partial curve, poor fit]
CCOc1cc(/C=C/C(=O)c2ccc3c(c2)OCCO3)ccc1OCC(=O)N(C)C | – | inconclusive: 18.5 µM [inhibitor, single point]
CC1CC(C)CN(S(=O)(=O)c2ccc(C(=O)N(c3ccccn3)C3CCCCC3)cc2)C1 (stereo unspecified) | – | inconclusive: 11.7 µM [inhibitor, partial curve]
CCOC(=O)Cc1csc(NC(=O)C(CC(C)C)NC(=O)C2CCCCC2)n1 (stereo unspecified) | – | inconclusive: 11.7 µM [inhibitor, partial curve]
Nc1nonc1-n1nnc(C(=O)N/N=C/c2cccc(Cl)c2Cl)c1CN1CCCC1 | inactive: 10.8% | –
CCc1ccc(NC(=O)NCCN2CCc3ccccc3C2)cc1 | – | active: 2.08 µM
Cc1ccc(C)c(NS(=O)(=O)c2ccc(-c3ccc(=O)[nH]n3)o2)c1 | – | inconclusive: 10.4 µM [inhibitor, single point]
Cc1ccc(S(=O)(=O)NC(=NC2CCCCC2)c2ccc(F)cc2)cc1 | inactive: 12% | –
Cc1cc2oc(=O)cc(CN(C)Cc3cccc(F)c3)c2cc1Cl | inactive: 13% | –
CC(C)Nc1ccc(C(CC(N)=O)NC(=O)Cc2ccc(Cl)cc2)cc1[N+](=O)[O-] (stereo unspecified) | inactive: -16.7% | –
O=C(CN1CCN(S(=O)(=O)c2ccc3ccccc3c2)CC1)Nc1ccc(N2CCOCC2)cc1 | – | inconclusive: 14.7 µM [inhibitor, partial curve, poor fit]
COc1ccc(Cl)cc1NC(=O)Nc1ccc(C(=O)N2CCOCC2)cc1 | inactive: -17.9% | –
O=C(Nc1ccc(NC(=O)c2ccccc2F)cc1)c1ccccc1F | – | inconclusive: 18.5 µM [inhibitor, single point]
CN1C2=C(C#N)C(c3ccccc3)(C(F)(F)F)NC(=O)N2c2ccccc21 (stereo unspecified) | – | active: 7.38 µM
CCCc1cc(=O)[nH]c(SCC(=O)N2CCc3cc(OC)c(OC)cc3C2)n1 | – | inconclusive: 18.5 µM [inhibitor, single point]
O=C(COC(=O)/C=C/c1ccccc1)NCC1CCCO1 (stereo unspecified) | inactive: 13.4% | –
CN(C)CCCN1c2ccccc2Sc2ccc(Cl)cc21 | – | inconclusive: 13.1 µM [inhibitor, single point] and inconclusive: 5.86 µM [inhibitor, partial curve, poor fit]
Nc1nc(NCCc2ccccc2)nc(NCc2ccccc2)c1[N+](=O)[O-] | – | inconclusive: 4.15 µM [inhibitor, partial curve]
CC1(C)CC(=O)C2=C(C1)OC(N)=C(C#N)C2c1cn(-c2ccccc2)nc1-c1ccc(F)cc1 (stereo unspecified) | – | inconclusive: 18.5 µM [inhibitor, single point]

SMILES | activity change, negative = inhibition | Potency
O=C(O)C(Cc1ccccc1)N1C(=O)c2ccccc2C1=O (stereo unspecified) | – | active: 14.7 µM
CCOC(=O)c1ccc(NC(=O)Nc2ccon2)cc1 | inactive: -3.34% | –
Cc1cccc(N=N/C(=C\O)C(=O)c2cccs2)c1 | – | active: 11.7 µM
COc1ccc(COC(=O)NC2CCN(S(=O)(=O)c3ccc(OC)cc3)CC2)cc1 | – | inconclusive: 0.522 µM [inhibitor, full curve, poor fit]
CN(CC(=O)Nc1ccccc1Br)C(=O)c1n[nH]c2ccccc12 | inactive: -0.88% | –
Cc1cc(NC(=O)Cc2ccccc2[N+](=O)[O-])no1 | – | inconclusive: 18.5 µM [inhibitor, single point]
CCOc1ccccc1Oc1nc(-c2ccccc2O)nc2ccccc12 | – | inconclusive: 10.4 µM [inhibitor, single point]
CCCCC(=O)Nc1ccc2c3c(cccc13)CC2 | – | inconclusive: 18.5 µM [inhibitor, single point]
O=C(NCc1ccc(Cl)cc1)c1ccc(-n2cccn2)nc1 | inactive: 28.6% | –
COc1cc(C(=O)Oc2ccccc2/C=N/NC(=O)c2ccc(C)cc2)cc(OC)c1OC | – | inconclusive: 9.28 µM [inhibitor, partial curve]
O=C1OCCC1Sc1nnc(-c2ccc3c(c2)OCO3)n1-c1ccccc1 (stereo unspecified) | – | inconclusive: 2.08 µM [inhibitor, partial curve, poor fit]
O=C1c2ccccc2C(=O)N1Cc1ccccn1 | inactive: 9.73% | –
Cc1ccccc1-c1nc2cc(Cl)ccc2c(=O)o1 | inactive: 24.7% | –
CCN1CCN(CCC(=O)Nc2ccc(C)cc2)CC1 | – | inconclusive: 14.7 µM [inhibitor, partial curve, poor fit]
CCSc1nc2ccccc2c(=O)n1Cc1ccc(F)cc1 | inactive: 29.6% | –
Oc1ccc2cc(Br)ccc2c1CN1CCCC1 | – | active: 4.65 µM
CC(=O)c1cccc(NC(=O)CN2C(=O)COc3ccc(S(=O)(=O)N4CCOCC4)cc32)c1 | – | active: 11.7 µM
CCOC(=O)C1(CC2CC2)CCN(S(=O)(=O)/C=C/c2ccccc2)CC1 | – | inconclusive: 10.4 µM [inhibitor, single point]
COc1ccccc1CNC(=O)COC(=O)c1ccccc1-c1ccccc1 | – | inconclusive: 18.5 µM [inhibitor, single point]
CCOC(=O)C1=C(N)Oc2cc(O)ccc2C1c1ccc(Br)cc1 (stereo unspecified) | – | inconclusive: 11.7 µM [inhibitor, single point]
Cc1ccc2oc(C(=O)NCC(c3ccco3)N3CCCC3)c(C)c2c1 (stereo unspecified) | – | inconclusive: 18.5 µM [inhibitor, single point]
COc1ccccc1-c1nc2c3ccccc3nc(=S)n2[nH]1 | – | active: 1.47 µM
Cc1ccccc1/C=c1\s/c(=C\C(=O)C(C)(C)C)[nH]c1=O | – | inconclusive: 16.5 µM [inhibitor, single point]

From PubChem BioAssay AID504834 (National Center for Advancing Translational Sciences (NCATS), 2011)
